# Primary screen of a compound library

Chains of the proteins cited; added tags and fusions are not shown.
UniProt E9BF75, entry or part of it: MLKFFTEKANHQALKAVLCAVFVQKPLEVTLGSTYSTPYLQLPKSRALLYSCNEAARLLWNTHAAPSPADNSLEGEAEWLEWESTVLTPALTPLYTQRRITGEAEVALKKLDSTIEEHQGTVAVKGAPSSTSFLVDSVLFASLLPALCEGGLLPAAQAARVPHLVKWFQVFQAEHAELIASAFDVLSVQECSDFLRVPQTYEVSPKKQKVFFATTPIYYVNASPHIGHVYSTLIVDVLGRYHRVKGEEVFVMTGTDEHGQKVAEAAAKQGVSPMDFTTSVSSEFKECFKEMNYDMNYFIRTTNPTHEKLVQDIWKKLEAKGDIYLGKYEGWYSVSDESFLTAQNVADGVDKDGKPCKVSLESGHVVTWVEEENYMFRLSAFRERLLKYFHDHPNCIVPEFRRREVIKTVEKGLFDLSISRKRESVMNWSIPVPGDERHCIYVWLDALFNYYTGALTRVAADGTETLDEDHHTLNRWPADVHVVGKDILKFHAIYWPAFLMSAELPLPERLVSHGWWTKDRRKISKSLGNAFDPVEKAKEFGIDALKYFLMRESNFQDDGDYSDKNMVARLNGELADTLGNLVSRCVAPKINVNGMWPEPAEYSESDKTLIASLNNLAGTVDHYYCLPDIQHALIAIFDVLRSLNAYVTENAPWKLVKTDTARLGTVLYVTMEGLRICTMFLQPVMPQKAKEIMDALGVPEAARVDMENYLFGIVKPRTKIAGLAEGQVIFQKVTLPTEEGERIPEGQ

The values are deposited in ChEMBL (CHEMBL3988442, “University of Dundee, Small-Polar-MMV Screening Library” (2021)).

All values are in %. How 0% and 100% were set is not recorded. Most values in the screen are low, and negative values occur. This is an unselected part of the compounds tested. A dash means the value is not listed here; it may have been measured.

LdMetRS: 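Methionyl-tRNA synthetase (putative), Leishmania donovani (UniProt E9BF75). Primary screen of methionyl-tRNA synthetase; the read-out is not stated. The test concentration is not given. Values are per cent inhibition. Of about 68,000 compounds tested this way, about 24 (0.035%) reached 50% or more in at least one test.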
Mtb heat-shock: 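Assay on Mycobacterium tuberculosis, filed only as a heat shock assay from Cornell; the read-out is not stated. The concentration is filed as 10 mM, unlikely as a test dose, so the dose is not known. Higher reads as stronger inhibition (inferred: compounds with an IC50 in retests scored well above the rest). About 69,000 compounds were tested under these conditions; 1.4% (about 930) showed 50% or more at least once.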

SMILES,LdMetRS,Mtb heat-shock
CCOC1COC2(CCN(Cc3ccc(C)c(C)c3)CC2)C1 (stereo not drawn),14.57,-
COC(=O)N1CC2=CC(C)(C)COc3ccc(OC)c(c32)C1,6.849,-6.388
O=C(CC1CCCC1)N1CCC2(CCN2Cc2ccc(F)cc2)C1 (stereo not drawn),21.85,-
CN(C)c1ncc(CNS(=O)(=O)c2cc(F)ccc2Cl)n1C,14.29,-4.238
COCC(=O)NCCCn1ncc2c(C)cccc21,-7.286,28.2
O=C1NCC2(CCCN(Cc3ccc(F)cc3)C2)Oc2ccccc21 (stereo not drawn),16.67,-3.174
Cc1cccc(C(=O)NCC(O)c2ccc(F)cc2F)c1 (stereo not drawn),8.242,10.79
O=C(N[C@H]1CN[C@H]2CCCO[C@H]21)c1cccnc1,16.5,-
CCc1cnc(N2CCc3cc(C(=O)NC)c(N(C)C)nc3CC2)nc1,12.9,-
CS(=O)(=O)C1CCN(S(=O)(=O)c2ccc(F)c(F)c2)C1 (stereo not drawn),9.577,10.7
COc1ccc(/C=C/CN2CCC3(CC2)CN(C)C(=O)O3)cc1,3.2,-22.96
O=C(c1ccno1)N1CCO[C@@H]2CC(COCc3ccccn3)C[C@H]21 (stereo partly drawn),9.384,-
Cc1cccc(CN2CCC3(CCC(CC(=O)N(C)C)CC3)CC2)n1.O=C(O)C(F)(F)F,-,11.02
O=C(c1cnco1)N1CCC(Cc2ccc3ncccc3c2)CC1,14.69,12.92
O=C(CCc1cc2n(n1)CCCNC2)N1CCC(N2CCOC2=O)CC1,10.47,-0.9395
O=C(O)C(F)(F)F.O=C(O)C(F)(F)F.[H][C@@]12CCN(C)[C@@]1([H])CCN2Cc1cc(C)c(C)o1,-,-7.443
[H][C@@]12OCCN(C(=O)c3ccncn3)[C@@]1([H])CC[C@@H]2OCc1cccnc1,-,29.61
COc1cc2c(cc1CN1C[C@@H](CN3CCOCC3)[C@@H](CO)C1)CCC2,8.059,-18.22
O=C(O)C(F)(F)F.[H][C@@]12CN(C(=O)C3CCOC3)C[C@]1([H])C(=O)N(Cc1cccnc1)C2 (stereo partly drawn),-,31.74
CCCC1(CO)CCCN(Cc2nccs2)C1 (stereo not drawn),10.21,-1.969
Fc1ccc(CN2CCCn3cnc(COCC4CC4)c3C2)cc1.O=C(O)C(F)(F)F,-,-8.529
N#Cc1nccnc1N1CCC(c2nc(C(F)(F)F)c[nH]2)CC1,10.45,17.33
Cn1cccc1C(=O)N1CCN(Cc2ccncc2)c2ncccc2C1,10.46,-
COc1nc2c(cc1C(=O)NCCCc1nnc(N)s1)CCC2,6.494,2.679
Cc1ccc(C(=O)N2CCC3(CC(N(C)c4ccncn4)C3)C2)cn1 (stereo not drawn),6.824,-21.34
O=C(CN1CCCC(c2noc(C3CC3)n2)C1)N1CCCC1 (stereo not drawn),5.236,-7.129
Cc1cc(NCCCc2c(C)noc2C)nc(N)n1,10.72,-13.41
Cc1nn(C)cc1CN1CCCC(n2c(=O)oc3ccccc32)C1 (stereo not drawn),9.006,17.45
Cc1ccc(O)c(CN2CCc3nc(-c4cccnc4)nc(O)c3C2)c1,8.333,3.191
Cc1csc(CCNc2ccc(C#N)cc2F)n1,11.54,19.03
Cc1cc(C(=O)NCC(O)c2c(Cl)cccc2Cl)nn1C (stereo not drawn),4.79,-13.97
CC(C)CNC(=O)CN(C)S(C)(=O)=O,15.89,7.106
Cc1ccccc1N1CC2(CCCCN2CC2CC2)CC1=O.O=C(O)C(F)(F)F (stereo not drawn),-,23.16
CCC(CN1CCCC1)n1cncc1-c1cnn(-c2ccc(F)cc2)c1 (stereo not drawn),18.6,-
Cc1nc(NCCSc2nnc(C)s2)c2cccnc2n1,11.23,26.71
Cc1cccc(C(=O)N2CCSCC2)c1NC(=O)c1cccnc1,14.78,-23.37
O=C(CN1C(=O)CCC1=O)NCc1nn(C2CCCC2)c2c1CCCC2,12.95,5.658
COc1cc(CN(C)C(C)c2ccccn2)cc2c1OCO2 (stereo not drawn),19.31,-39.38
CCOC(=O)C1CCN(C(=O)c2cnn(-c3ccccc3F)c2N)CC1,10.83,35.81
O=C(Cc1cccs1)NC1(C(=O)NCC2CC2)CCCC1,-16.3,2.645
O=C(Nc1cc(C(F)(F)F)c[nH]c1=O)C1CCCNC1 (stereo not drawn),12.3,-0.2265
CCC(NC(=O)c1ccc(OC)nn1)c1nc(C(F)(F)F)cs1 (stereo not drawn),13.61,3.575
COCCN1C[C@H]2CCN(c3ncccn3)CC[C@H]2S1(=O)=O,6.189,-
Cc1cnn(CC2CCCN2Cc2coc(-c3ccccc3)n2)c1 (stereo not drawn),9.36,34.07
Cc1nc(N(C)C)nc2c1COCC21CCN(CC2CC2)C1 (stereo not drawn),13.33,-
COc1ccc(CN2CC[C@H]3[C@H](CO[C@H]3CNC(=O)N(C)C)C2)cc1,6.767,-
Fc1ccccc1OCCc1cc(C2CNCCO2)n[nH]1 (stereo not drawn),12.22,-
Cc1c(CN2C[C@@H](O)[C@H](Oc3cccc(F)c3)C2)cnn1C,7.097,2.627
Cc1cccnc1C(=O)N1CCCC(Cc2cncc3ccccc23)C1 (stereo not drawn),16.13,-0.6627
O=C1CCN(C(=O)NCC(c2ccccc2)c2ccccc2)CCN1,12.66,0.5147
CC(=O)NCCCSC1CCN(c2ccccc2Cl)C1=O (stereo not drawn),6.115,3.622
CCc1nc(C)c(CN2CCOC(Cc3cccc4ccccc34)C2)[nH]1 (stereo not drawn),23.4,8.588
COc1ccc(CNC(c2cccc(F)c2)c2cnn(C)c2)cc1 (stereo not drawn),-1.047,-3.342
CC(C)c1noc(CN(Cc2cccnc2)C2CN3CCC2CC3)n1 (stereo not drawn),6.875,-31.73
CN1N=C(C(=O)N2CCCCC2)S(=O)(=O)c2ccccc21,11.8,-12.77
CC(c1cccnc1)N1CCN(CCCC#N)CC1 (stereo not drawn),9.028,-10.53
COc1ccc(CN2CCCn3nnc(COCC4CC4)c3C2)cc1.O=C(O)C(F)(F)F,-,2.108
Cc1cnn(CC2CCCCN2Cc2nc(C)c3ccccc3n2)c1 (stereo not drawn),24.1,67.77
COC(=O)c1cc2c(OC)c(C)c(OC)cc2[nH]1,11.26,-9.193
Cn1ccnc1COc1ccc(NC(=O)CCC2CCCO2)cc1 (stereo not drawn),8.052,10.7
CC(C)n1ccc(-c2cc(C(=O)N3CCN(C)CC3)c3ccccn23)n1,9.273,-
COc1cc(CNC(=O)Nc2nnc(C(C)C)s2)ccn1,24.59,-30.56
Cc1noc(CN(C)C2CCCN(Cc3noc(C4CC4)n3)C2)n1 (stereo not drawn),20.57,-10.25
COCCN1C[C@@H](C)[C@@]2(COCCN(C(=O)c3ccno3)C2)C1.O=C(O)C(F)(F)F,-,-12.48
O=C(NC1CC1)N1CCc2ncc(CN3CCOCC3)n2CC1,9.95,-
CN(C)CCCN(Cc1ccco1)Cc1ccnn1C1CCCCO1 (stereo not drawn),8.511,-
O=C(O)C(F)(F)F.O=C(O)C(F)(F)F.[H][C@@]12CCCO[C@]1([H])[C@H](Nc1ccc(C)nn1)CN(Cc1cc(C)on1)C2,-,-10.18
CNc1ccc(C(=O)N(C)Cc2ccc3ccccc3n2)cn1,7.463,-0.634
Cn1ccnc1CN1CCC2(CCCN2c2ncccn2)CC1.O=C(O)C(F)(F)F,-,-9.175
c1ccc(-c2nc(CN3CCOC(Cn4cncn4)C3)cs2)cc1 (stereo not drawn),17.04,-8.129
CCn1cc(C(=O)NCc2cccnc2N(C)Cc2ccccc2)cn1,6.835,-21.08
Cc1ccccc1C(=O)N1CC[C@@H](N2CCC(O)CC2)[C@H](O)C1,11.5,6.647
[H][C@@]12CNC[C@]1([H])[C@H]2CN1CCC(c2nnc(CN(C)CCO)n2C)CC1,-,-22.08
CCOC(=O)c1cnn(C2CCN(C(=O)CC3C=CCC3)CC2)c1N (stereo not drawn),12.01,8.208
Cc1ccccc1Cc1nc(CSc2nnc(N)n2C2CC2)no1,5.775,-19.43

For reference, 6 entries once more:

SMILES	LdMetRS	Mtb heat-shock
Cn1cccc1C(=O)N1CCN(Cc2ccncc2)c2ncccc2C1	10.46	-
Cc1csc(CCNc2ccc(C#N)cc2F)n1	11.54	19.03
CC(c1cccnc1)N1CCN(CCCC#N)CC1 (stereo not drawn)	9.028	-10.53
COc1ccc(CNC(c2cccc(F)c2)c2cnn(C)c2)cc1 (stereo not drawn)	-1.047	-3.342
[H][C@@]12OCCN(C(=O)c3ccncn3)[C@@]1([H])CC[C@@H]2OCc1cccnc1	-	29.61
CNc1ccc(C(=O)N(C)Cc2ccc3ccccc3n2)cn1	7.463	-0.634